Some of the results follow.
The sequences below were run against OsWRKY34 (Oryza sativa, UniProt Q0JBA9 1-250) (assay: protein-binding microarray (RPBM); PBS, 2% BSA, 51.3 ng/ul salmon testes DNA, 50 uM zinc acetate, 200 nM TF, 25 C, 1 h; high values mean tight binding). Settings: protein: recombinant; tags: N-terminal polyhistidine and DsRed monomer fusion (pET32a); label: CyDye5-dUTP incorporated in the synthesized complementary strand; 3' TTTTT single-stranded linker to array surface; dsDNA, one strand shown.
How it was run: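 Ni–NTA purification followed expression in E. coli BL21-CodonPlus of transcription factors fused N-terminally to a polyhistidine tag and DsRed. At 200 nM in PBS with 2% BSA, salmon testes DNA and 50 µM zinc acetate, the protein was incubated for 1 h at 25 °C with a custom Agilent array that had been primer-extended with Cy5-dUTP and blocked with 2% BSA. After washing, the array was read on an Axon 4000B scanner. The binding signal is per-feature fluorescence intensity in arbitrary units.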

Chains of the proteins cited; added tags and fusions are not shown.
UniProt Q0JBA9, entry or part of it: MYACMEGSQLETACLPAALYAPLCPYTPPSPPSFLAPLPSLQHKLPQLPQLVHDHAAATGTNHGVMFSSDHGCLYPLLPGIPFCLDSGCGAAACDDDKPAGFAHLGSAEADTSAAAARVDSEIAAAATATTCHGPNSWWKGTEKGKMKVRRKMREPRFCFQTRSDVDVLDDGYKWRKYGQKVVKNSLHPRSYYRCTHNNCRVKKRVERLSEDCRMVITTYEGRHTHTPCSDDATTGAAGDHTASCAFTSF

In order of falling binding signal:
1. CTGCGCTCTCCATTGTTTTGTGTTGTGTTTGTTTGCAGTCCGGAGTCACCTAGTGCAG  17700 fluorescence intensity (a.u.)
2. AGTTTCATGCCGATTTTGGTTTTTGGAGTTCGGTCTTTCTCGGAGTCACCTAGTGCAG  15000 fluorescence intensity (a.u.)
3. GGTTGGATAGCGCTTGTGGTGTGGGCAGGGTTTACACAAACGGAGTCACCTAGTGCAG  14900 fluorescence intensity (a.u.)
4. GGGGCGGAGATCTGGGAGGAGGAGGAGGAGGTGGTGGTGGCGGAGTCACCTAGTGCAG  14500 fluorescence intensity (a.u.)
5. CTGGGGACGGTGTGGGTGGTGGTGGTAGTAGTAGTTCTCGCGGAGTCACCTAGTGCAG  13800 fluorescence intensity (a.u.)
6. ACTCGCATCGATCTTTAATTTCTGTTCTCACCTGTACATACGGAGTCACCTAGTGCAG  13500 fluorescence intensity (a.u.)
7. GGGGAGGCGGGTGGGGTTGAGGAGGTCGGTGGCCTCGGCGCGGAGTCACCTAGTGCAG  12300 fluorescence intensity (a.u.)
8. AAATTCCGGCCGCCGCCTTCGATTCCCGCGTGCCCACGCACGGAGTCACCTAGTGCAG  12000 fluorescence intensity (a.u.)
9. TGCTCGCCGCTACTGTGTTCCTCTCGCGTCGCCTCGTCTCCGGAGTCACCTAGTGCAG  11900 fluorescence intensity (a.u.)
10. AATTTACCCCTAAGTACTTTTTGGTTCATTTTGTCTCTAACGGAGTCACCTAGTGCAG  11700 fluorescence intensity (a.u.)
11. CCTGTTGCTGCTCTGTGCCTCTGCTCTGCTCCTTGACTTCCGGAGTCACCTAGTGCAG  11300 fluorescence intensity (a.u.)
12. ATCTGTACACCATCAGCCCATCTGTACTCATATCTGCATACGGAGTCACCTAGTGCAG  11100 fluorescence intensity (a.u.)
13. TTTGTTGCCGATTTGCTGCCGTGTTTGCTGCCGCGATTTGCGGAGTCACCTAGTGCAG  10800 fluorescence intensity (a.u.)
14. GAACCAGGTACCTGCAATTACCACTGCTTTTTAGGCTTCCCGGAGTCACCTAGTGCAG  10700 fluorescence intensity (a.u.)
15. TGACTTTTTAGCACATGTTTGACTGTTCGTCTTATTCAAACGGAGTCACCTAGTGCAG  10200 fluorescence intensity (a.u.)
16. GCATATTTGCATTACTTTTTGTACCACTTGATCACTTTTTCGGAGTCACCTAGTGCAG  10200 fluorescence intensity (a.u.)
17. GTCCTTGTTTATGTATGGCCCTTGTCCATGGTGCAGTTCACGGAGTCACCTAGTGCAG  10200 fluorescence intensity (a.u.)
18. CTCGTGTAGAGGCTCTCTCTCTCTCTCTCTCTGGGTGGGGCGGAGTCACCTAGTGCAG  10200 fluorescence intensity (a.u.)
19. CCATTTTTTCACACCCCAGCTACTGTTTAGGTCACCTGTCCGGAGTCACCTAGTGCAG  10100 fluorescence intensity (a.u.)
20. ATAATTAAGCATTTTCTTGTTTCATATGTGCTTGTTTGACCGGAGTCACCTAGTGCAG  10100 fluorescence intensity (a.u.)
21. AGATTCTTATTCACCATTCCTGGAGCTCATGCTTAATTTCCGGAGTCACCTAGTGCAG  9980 fluorescence intensity (a.u.)
22. CTTCCTTCAGCCGCTTGCTCCTCGCTATCTGTCCCGGCTGCGGAGTCACCTAGTGCAG  9860 fluorescence intensity (a.u.)
23. ATTCTACATTTTGATATCAAGCCGCACAACATCCTTCTTGCGGAGTCACCTAGTGCAG  9850 fluorescence intensity (a.u.)
24. GTTCCCAGATGATATATTCTTGCTTTTTTTTTCTTGAAAACGGAGTCACCTAGTGCAG  9800 fluorescence intensity (a.u.)
25. TACTTACGTTCTTTCATTTGATTTGGCATGTGTACTCTCTCGGAGTCACCTAGTGCAG  9650 fluorescence intensity (a.u.)
26. GATCTCCTCAAGCGTTGGCATTCCCAAGTTGTTATCATTCCGGAGTCACCTAGTGCAG  9610 fluorescence intensity (a.u.)
27. CATATTAATTACTTTCTTGGTTCTAACTTCGTCTTCATCTCGGAGTCACCTAGTGCAG  9530 fluorescence intensity (a.u.)
28. TTTGAGGTCTTGTTTGTTTGGGTTTTACCTCCAATTCGGGCGGAGTCACCTAGTGCAG  9440 fluorescence intensity (a.u.)
29. TCCTCTTCGCCGGCTGCCGCTCCTCTCCCCGCTCGTCTTTCGGAGTCACCTAGTGCAG  9440 fluorescence intensity (a.u.)
30. CGATTTTTCCCAAAGGGCGGCGGGCGACTAATTTTGTAAACGGAGTCACCTAGTGCAG  9420 fluorescence intensity (a.u.)
31. TACTACCACACCACACCTCATCGTGGCACGTACCGGTTCACGGAGTCACCTAGTGCAG  9410 fluorescence intensity (a.u.)
32. CTTCCCCTTCTCAATCTTGTCGCGCCATCCACCTCGCCACCGGAGTCACCTAGTGCAG  9410 fluorescence intensity (a.u.)
33. CGTGCTTTTGTAAATATTTTCGATCTGGTTTTCCTTATAACGGAGTCACCTAGTGCAG  9390 fluorescence intensity (a.u.)
34. CTCAAGTTGACCAAGCCGCTCTTTAAATCCCTAATGGCTACGGAGTCACCTAGTGCAG  9390 fluorescence intensity (a.u.)
35. TATGTGTGCGTCCATATGTTACAAATTAAGCGATTTTTCTCGGAGTCACCTAGTGCAG  9340 fluorescence intensity (a.u.)
36. AGTTGCCTCCAGTTCCTGAAGTTACTTTGGTCTTATTATGCGGAGTCACCTAGTGCAG  9320 fluorescence intensity (a.u.)
37. CCAGCTTGTGATGTACCTAAGTTTTGTTAACATATGTCTGCGGAGTCACCTAGTGCAG  9310 fluorescence intensity (a.u.)
38. TTGGTCCTTTTATTGCCACTAATTGGCTCGTCTAATATTACGGAGTCACCTAGTGCAG  9310 fluorescence intensity (a.u.)
39. TACGACGGCCGAAGGTGGGGAAGAAGGAGAGGGGAGGGGCCGGAGTCACCTAGTGCAG  9290 fluorescence intensity (a.u.)
40. AGTGGTCGTCGCCTTTCTCGTGTCTCGTCGACGGCCGCGACGGAGTCACCTAGTGCAG  9250 fluorescence intensity (a.u.)
41. GTTGTACTCCCAGTCCCCGGTTTCCCAGTCGAAAGCGTAGCGGAGTCACCTAGTGCAG  9250 fluorescence intensity (a.u.)
42. TCGTTTTTTTCCCCTTAGAGGCTTAGATATCGAATTTCCTCGGAGTCACCTAGTGCAG  9190 fluorescence intensity (a.u.)
43. ATAAACATTGACTCGCCGGAGTAGTTTTGAAACGTTTGACCGGAGTCACCTAGTGCAG  9180 fluorescence intensity (a.u.)
44. TAAATGATCTTTGCTGTGTTAATATTCTGTTCTTAATTTTCGGAGTCACCTAGTGCAG  9100 fluorescence intensity (a.u.)
45. CGTGTGTGCTATTTAAGCATGTAATCAGTGTGTGATTAATCGGAGTCACCTAGTGCAG  9100 fluorescence intensity (a.u.)
46. CCTCGCTTCTGCTCCTCGGTCCCGCACCTGCCTCCGCCTTCGGAGTCACCTAGTGCAG  9060 fluorescence intensity (a.u.)
47. TTAGGTCCAAATCACACAGATTTTAGATAGTTGGATTAGGCGGAGTCACCTAGTGCAG  9050 fluorescence intensity (a.u.)
48. GACCTCCTCATTTCGTCGAACACCTCGCGGGCGCCATGGACGGAGTCACCTAGTGCAG  9030 fluorescence intensity (a.u.)
49. TTTATCTACGTGTTCATGTACTGCTACAATCGCCATAATTCGGAGTCACCTAGTGCAG  9020 fluorescence intensity (a.u.)
50. TTTATTCTTGATTGATTTACTTTTGGTTTTTGCATAAACTCGGAGTCACCTAGTGCAG  9010 fluorescence intensity (a.u.)
51. CCCGTCCTTGGTCGCGCTCGCACTCGCACTCGCGTCGCGTCGGAGTCACCTAGTGCAG  8970 fluorescence intensity (a.u.)
52. ATTGCGCGTCCTACACACTCGTACTGGAAGACTATTGGTGCGGAGTCACCTAGTGCAG  8830 fluorescence intensity (a.u.)
53. GCATGTGTGGTTGACTAGCTTGCACCAGATCTGTTGGAGTCGGAGTCACCTAGTGCAG  8790 fluorescence intensity (a.u.)
54. CGTCCATCTCTCCTCTCCTCGCTCTCGCTCGCTCGCTCTCCGGAGTCACCTAGTGCAG  8780 fluorescence intensity (a.u.)
55. ACTTTACCGTTGCGGGTGCTCTTGCGCGGCCCTCGAATTCCGGAGTCACCTAGTGCAG  8770 fluorescence intensity (a.u.)
56. CCATCATCATCTTCCTTTCGTGCTCTAACAATGGCCATGCCGGAGTCACCTAGTGCAG  8740 fluorescence intensity (a.u.)
57. TTTTTAAGTTCGTTTCTGAATTCTGCTGATTACTCTTTTTCGGAGTCACCTAGTGCAG  8710 fluorescence intensity (a.u.)
58. GTTCTCGCAAATTCCGAAGGCTTAGCCCAACTCAACATTTCGGAGTCACCTAGTGCAG  8700 fluorescence intensity (a.u.)
59. ATCGCTTCTCGCTGCTCATCTAGTCTATTGTGCTGCTGCTCGGAGTCACCTAGTGCAG  8680 fluorescence intensity (a.u.)
60. GATGCGGCTTCACACAGCTCACACCATTTTCTTCATTATACGGAGTCACCTAGTGCAG  8650 fluorescence intensity (a.u.)
61. GGTGGGAATGATGACAAAAACTAATTATCCAAAGCTTACCCGGAGTCACCTAGTGCAG  8630 fluorescence intensity (a.u.)
62. ATGTGAACTTAGGTGGGTATATTTTTTTTTTCACGTGCCGCGGAGTCACCTAGTGCAG  8630 fluorescence intensity (a.u.)
63. GGATAACTTCGCCGTTAAGTCAAACTCCACTCTTCTTATCCGGAGTCACCTAGTGCAG  8620 fluorescence intensity (a.u.)
64. CAGGGGTGGGCCCAGTAGTAATTCAAGGGTATTCCCAAGACGGAGTCACCTAGTGCAG  8560 fluorescence intensity (a.u.)
65. ATGTCAGCATAATCTCTTCTCATCTTCTCCTTTTCTTTTTCGGAGTCACCTAGTGCAG  8550 fluorescence intensity (a.u.)
66. AGACGAGCCCAACCCCTTTTGCTCCTCTCGCCGTTTTGGTCGGAGTCACCTAGTGCAG  8520 fluorescence intensity (a.u.)
67. CGACGCTTTCTTCAGTGGATCTCATACTCTTTGCATTCTACGGAGTCACCTAGTGCAG  8490 fluorescence intensity (a.u.)
68. TACCGTACCTGCCCATGCTGTCGTCATCCCACCGAGGGGACGGAGTCACCTAGTGCAG  8470 fluorescence intensity (a.u.)
69. AATTCGTTCCATATTCTACTTGTTCTCTCTGCTATTATTACGGAGTCACCTAGTGCAG  8440 fluorescence intensity (a.u.)
70. TTTTACTACCTCACCTCCCACTCTACTGCTACTCAACAATCGGAGTCACCTAGTGCAG  8410 fluorescence intensity (a.u.)
71. TCGCTGTTGAACTCTCTCTTCCCTCTCTCTCTTTCTCTCTCGGAGTCACCTAGTGCAG  8400 fluorescence intensity (a.u.)
72. CCCACATAAGCGGCCAATCAATTTTTTCTACGTAGTTTTTCGGAGTCACCTAGTGCAG  8380 fluorescence intensity (a.u.)
73. CAAGGCCTCAACCTACTCCAGCTATCTCGCCGTACCGCCGCGGAGTCACCTAGTGCAG  8360 fluorescence intensity (a.u.)
74. ACTTTCTTGAATTTAATGCGTGACTCTCCATTCGTCCACACGGAGTCACCTAGTGCAG  8360 fluorescence intensity (a.u.)
75. GTCGAAACCCTAGCCGCGCGCGCCGCCGCCTCCTCTCCCGCGGAGTCACCTAGTGCAG  8290 fluorescence intensity (a.u.)
76. GGGGAGCTATATTTCGTGATGTCAAAGGCGATGCTCGCTCCGGAGTCACCTAGTGCAG  8220 fluorescence intensity (a.u.)
77. TTTTTTTATATCAAACTTTTTAAATGTTTGACCAAGTTTACGGAGTCACCTAGTGCAG  8210 fluorescence intensity (a.u.)
78. ACATGTGGGCCCCACATGTCAGTGGGCCCACATTCTTTTTCGGAGTCACCTAGTGCAG  8180 fluorescence intensity (a.u.)
79. ATGACATGTCATGGGACTTACTTTACATGGTTTTGAATACCGGAGTCACCTAGTGCAG  8140 fluorescence intensity (a.u.)
80. TCGTTCCTCACGCGCAAAACCGAACCGCCTGCCGAACAACCGGAGTCACCTAGTGCAG  8110 fluorescence intensity (a.u.)
81. CCAGGCCTAACAGTATACCCATTTGAAGCCCAGCTCATCTCGGAGTCACCTAGTGCAG  8100 fluorescence intensity (a.u.)
82. AATTCGTCTCATGGTTTACTAACGTATTTTATAATTATTTCGGAGTCACCTAGTGCAG  8080 fluorescence intensity (a.u.)
83. GAGGCTACCTAGACGTTATTTTGTTCCGCTGCTACGCCTTCGGAGTCACCTAGTGCAG  8070 fluorescence intensity (a.u.)
84. CACGCTAGCTACTTCCCGCAGTTTGTGTATGCGGTGCAACCGGAGTCACCTAGTGCAG  8050 fluorescence intensity (a.u.)
